{"source": "PubChem BioAssay AID1259405 – NCATS – 2018", "purpose": "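Knock-downs that lift recombinant protein yield in hamster ovary cells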 (primary screen)", "cells": "Chinese hamster CHO-K1 ovary cells with stable secreted eGFP expression", "reagent": "single siRNA against mouse genes, 0.8 pmol siRNA per well (2 µl of 400 nM stock)", "timing": "3 days", "measurement": "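Per-well intracellular GFP measured by laser scanning cytometry, plus viability from ATP luminescence, each relative to plate median of non-targeting control wells, in %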", "scale": "GFP, % of control: higher = more GFP per well, higher productivity; viability (ATP), % of control: higher = more viable cells (more ATP)", "hit rule": "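Called active when intracellular GFP, relative to negative control, is at or above 120%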", "note": "The deposit covers about 50,000 reagents; shown is a part drawn at random. About 4,000 of all reagents (8%) were called active. 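Mouse siRNA library applied to hamster cells; one well for each siRNA.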 Unmarked entries are inactive. Reagents against one gene are numbered here."}
{"target gene": "Clip4", "reagent no.": 1, "GFP, % of control": 89.1, "viability (ATP), % of control": 78.4}
{"target gene": "Clip4", "reagent no.": 2, "GFP, % of control": 78.3, "viability (ATP), % of control": 83.1}
{"target gene": "Clip4", "reagent no.": 3, "GFP, % of control": 89.3, "viability (ATP), % of control": 65.1}
{"target gene": "Or9g8", "reagent no.": 1, "GFP, % of control": 76, "viability (ATP), % of control": 107}
{"target gene": "Or9g8", "reagent no.": 2, "GFP, % of control": 71.7, "viability (ATP), % of control": 90.9}
{"target gene": "Or9g8", "reagent no.": 3, "GFP, % of control": 91, "viability (ATP), % of control": 83.2}
{"target gene": "Ppcdc", "reagent no.": 1, "GFP, % of control": 93.8, "viability (ATP), % of control": 67.4}
{"target gene": "Ppcdc", "reagent no.": 2, "GFP, % of control": 63.7, "viability (ATP), % of control": 95.2}
{"target gene": "Ppcdc", "reagent no.": 3, "GFP, % of control": 85, "viability (ATP), % of control": 104}
{"target gene": "9930111J21Rik2", "reagent no.": 1, "GFP, % of control": 47.8, "viability (ATP), % of control": 42.6}
{"target gene": "9930111J21Rik2", "reagent no.": 2, "GFP, % of control": 29.7, "viability (ATP), % of control": 53.9}
{"target gene": "9930111J21Rik2", "reagent no.": 3, "GFP, % of control": 91, "viability (ATP), % of control": 94.6}
{"target gene": "Dgkz", "reagent no.": 1, "GFP, % of control": 59.8, "viability (ATP), % of control": 81}
{"target gene": "Slc12a9", "reagent no.": 1, "GFP, % of control": 107, "viability (ATP), % of control": 124}
{"target gene": "Slc12a9", "reagent no.": 2, "GFP, % of control": 48.8, "viability (ATP), % of control": 58.6}
{"target gene": "Slc12a9", "reagent no.": 3, "GFP, % of control": 66.3, "viability (ATP), % of control": 52}

Copied from the list.
Slc12a9 #3, GFP, % of control = 66.3
Entry of 9930111J21Rik2 #2 in “GFP, % of control”: 29.7
